Measured values: patent US10624968B2, “Compounds for treating cancer” (Bicycle Therapeutics Limited, priority 2017, dated 2020)
pIC50: −log10 of the molar value. For some of these results: Part of at least one peptide drawing is inferred or uncertain, most often the ends. Some results were stated once for a whole list of compounds, not compound by compound. For some of these results: For at least one compound, name, drawing or mass did not settle the structure. Starred links: 1 amine or outer side, 2 acyl side, 3 side chain; linkers in the order of their positions; H or OH if unused. Positions of bridges follow the written chain, without caps; N, C: chain ends. Non-standard residues stand in square brackets, D forms with d. Residues, ends and D or L forms follow the SMILES beside them. ξ: configuration not given here. *: point of attachment. X3 = COc1cc2cc(c1Cl)N(C)C(=O)C[C@H](OC(=O)[C@H](C)N(C)C(=O)CCSCc1ccc(N*)cc1)[C@]1(C)O[C@H]1[C@H](C)[C@@H]1C[C@@](O)(NC(=O)O1)[C@H](OC)/C=C/C=C(\C)C2; X4 = COc1cc2cc(c1Cl)N(C)C(=O)C[C@H](OC(=O)[C@H](C)N(C)C(=O)CCN(C)*)[C@]1(C)O[C@H]1[C@H](C)[C@@H]1C[C@@](O)(NC(=O)O1)[C@H](OC)/C=C/C=C(\C)C2; Dolaproine = CO[C@@H]([C@@H]1CCCN1)[C@@H](C)C(=O)O; Dil = CC[C@H](C)[C@H](NC)[C@@H](CC(=O)O)OC; TBMB = c1c(C[*:1])cc(C[*:3])cc1C[*:2]; PABC = O=C(OCc1ccc(N[*:1])cc1)[*:2]; Glutaryl = O=C(CCCC(=O)[*:2])[*:1]; X1 = C[C@@H](N*)[C@@H](O)c1ccccc1; ξ1Nal = NC(Cc1cccc2ccccc12)C(=O)O; Cit = NC(=O)NCCC[C@H](N)C(=O)O; NMeV = CN[C@H](C(=O)O)C(C)C; ξY = NC(Cc1ccc(O)cc1)C(=O)O; ξTle = CC(C)(C)C(N)C(=O)O; ξF = NC(Cc1ccccc1)C(=O)O; ξE = NC(CCC(=O)O)C(=O)O; ξD = NC(CC(=O)O)C(=O)O; ξN = NC(=O)CC(N)C(=O)O; ξC = NC(CS)C(=O)O; βAla = NCCC(=O)O; ξA = CC(N)C(=O)O; Sar = CNCC(=O)O

Tests used:
HT1080 xenograft = assay: In vivo efficacy of I-3a, I-7, I-4a, I-8 in HT1080 xenograft (Example 13); parameters: species or system mouse; details: for antitumor activity (in words): 1 mg/kg, 3 mg/kg and 10 mg/kg biw; for Tumor volume: biw i.v.; for Tumor Volume (mean ± SEM): day 14 after the start of treatment, Balb/c nude mice
11 tumor cell lines = assay: 11 cancer cell line panel cytotoxicity, statements on the whole panel; details: read-out: IC50 on all 11 tumor cell lines, 72 hours
Text: Details of the initial cell plating procedure are described in Table 3.
Data Details for Tables 5 and 6. Inhibition %=(Max−Sample value)/(Max−Min)*100.
The IC50 curves were generated by 4 Parameter Logistic Model—Sigmoidal Dose-Response Model as follows: Y=Bottom+(Top−Bottom)/(1+10^((log EC50-X)*HillSlope)).

[1] = 1 mpk, biw, day 14, HT1080 xenograft
[2] = 3 mpk, biw, day 14, HT1080 xenograft
[3] = 10 mpk, biw, day 14, HT1080 xenograft

Row | Structure (SMILES) | antitumor activity (in words) (HT1080 xenograft; day 14) | Tumor volume (HT1080 xenograft; 1 mpk, day 0) | Tumor volume (HT1080 xenograft; 1 mpk, day 2) | Tumor volume (HT1080 xenograft; 1 mpk, day 4) | Tumor volume (HT1080 xenograft; 1 mpk, day 7) | Tumor volume (HT1080 xenograft; 1 mpk, day 9) | Tumor volume (HT1080 xenograft; 1 mpk, day 11) | Tumor volume (HT1080 xenograft; 1 mpk, day 14) | T/C (HT1080 xenograft; [1]) | TGI (HT1080 xenograft; [1]) | Tumor Volume (mean ± SEM) (HT1080 xenograft; 1 mpk, biw, HT1080 xenograft) | Tumor volume (HT1080 xenograft; 3 mpk, day 0) | Tumor volume (HT1080 xenograft; 3 mpk, day 2) | Tumor volume (HT1080 xenograft; 3 mpk, day 4) | Tumor volume (HT1080 xenograft; 3 mpk, day 7) | Tumor volume (HT1080 xenograft; 3 mpk, day 9) | Tumor volume (HT1080 xenograft; 3 mpk, day 11) | Tumor volume (HT1080 xenograft; 3 mpk, day 14) | T/C (HT1080 xenograft; [2]) | TGI (HT1080 xenograft; [2]) | other results
1 | COc1cc2cc(c1Cl)N(C)C(=O)C[C@H](OC(=O)[C@H](C)N(C)C(=O)CCSCc1ccc(NC(=O)[C@H](CCCNC(N)=O)NC(=O)[C@@H](NC(=O)CCCC(=O)NCCC(=O)N(C)CC(=O)N(C)CC(=O)N(C)CC(=O)N(C)CC(=O)N(C)CC(=O)N(C)CC(=O)N(C)CC(=O)N(C)CC(=O)N(C)CC(=O)N(C)CC(=O)NC(C)C(=O)NC3CSCc4cc5cc(c4)CSCC(NC(=O)C(C)NC(=O)C(Cc4cccc6ccccc46)NC(=O)C(CCC(=O)O)NC(=O)C(CC(N)=O)NC(=O)C(C)NC3=O)C(=O)NC(C)C(=O)NC(CC(=O)O)C(=O)NC(Cc3ccccc3)C(=O)NC(Cc3ccc(O)cc3)C(=O)NC(CC(=O)O)C(=O)NC(C(C)(C)C)C(=O)NC(C(N)=O)CSC5)C(C)C)cc1)[C@]1(C)O[C@H]1[C@H](C)[C@@H]1C[C@@](O)(NC(=O)O1)[C@H](OC)/C=C/C=C(\C)C2 (stereo partly drawn) [Compound I-7] ({X3-Cit-Val-Glutaryl-βAla}-[Sar][Sar][Sar][Sar][Sar][Sar][Sar][Sar][Sar][Sar][ξA][ξC][ξA][ξN][ξE][ξ1Nal][ξA][ξC][ξA][ξD][ξF][ξY][ξD][ξTle][ξC]-NH2; linker 12-18-25 via TBMB) | dose-dependent antitumor activity | 147 mm^3 | 230 mm^3 | 333 mm^3 | 379 mm^3 | 419 mm^3 | 494 mm^3 | 661 mm^3 | 45.0% | 61.0% | 661 ± 77 mm^3 | 148 mm^3 | 159 mm^3 | 126 mm^3 | 84 mm^3 | 86 mm^3 | 158 mm^3 | 172 mm^3 | 11.7% | 98.2% | TGI (HT1080 xenograft; 1 mg/kg biw, day 14): 61.0%; TGI (HT1080 xenograft; 3 mg/kg biw, day 14): 98.2%; TGI (HT1080 xenograft; 10 mg/kg biw, day 14): 111.3%; Tumor volume (HT1080 xenograft; 1 mpk, day 14, listed as 1-7): 661 mm^3; Tumor Volume (mean ± SEM) (HT1080 xenograft; 3 mpk, biw, HT1080 xenograft): 172 ± 75 mm^3; Tumor volume (HT1080 xenograft; 10 mpk, day 0): 148 mm^3; Tumor volume (HT1080 xenograft; 10 mpk, day 2): 116 mm^3; Tumor volume (HT1080 xenograft; 10 mpk, day 4): 44 mm^3; Tumor volume (HT1080 xenograft; 10 mpk, day 7): 31 mm^3; Tumor volume (HT1080 xenograft; 10 mpk, day 9): 5 mm^3; Tumor volume (HT1080 xenograft; 10 mpk, day 11): 4 mm^3; Tumor volume (HT1080 xenograft; 10 mpk, day 14): 0 mm^3; T/C (HT1080 xenograft; [3]): 0.0%; TGI (HT1080 xenograft; [3]): 111.3%; Tumor Volume (mean ± SEM) (HT1080 xenograft; 10 mpk, biw, HT1080 xenograft): 0 mm^3
2 | COc1cc2cc(c1Cl)N(C)C(=O)C[C@H](OC(=O)[C@H](C)N(C)C(=O)CCN(C)C(=O)OCc1ccc(NC(=O)[C@H](CCCNC(N)=O)NC(=O)[C@@H](NC(=O)CCCC(=O)NCCC(=O)N(C)CC(=O)N(C)CC(=O)N(C)CC(=O)N(C)CC(=O)N(C)CC(=O)N(C)CC(=O)N(C)CC(=O)N(C)CC(=O)N(C)CC(=O)N(C)CC(=O)NC(C)C(=O)NC3CSCc4cc5cc(c4)CSCC(NC(=O)C(C)NC(=O)C(Cc4cccc6ccccc46)NC(=O)C(CCC(=O)O)NC(=O)C(CC(N)=O)NC(=O)C(C)NC3=O)C(=O)NC(C)C(=O)NC(CC(=O)O)C(=O)NC(Cc3ccccc3)C(=O)NC(Cc3ccc(O)cc3)C(=O)NC(CC(=O)O)C(=O)NC(C(C)(C)C)C(=O)NC(C(N)=O)CSC5)C(C)C)cc1)[C@]1(C)O[C@H]1[C@H](C)[C@@H]1C[C@@](O)(NC(=O)O1)[C@H](OC)/C=C/C=C(\C)C2 (stereo partly drawn) [Compound I-8] ({X4-PABC-Cit-Val-Glutaryl-βAla}-[Sar][Sar][Sar][Sar][Sar][Sar][Sar][Sar][Sar][Sar][ξA][ξC][ξA][ξN][ξE][ξ1Nal][ξA][ξC][ξA][ξD][ξF][ξY][ξD][ξTle][ξC]-NH2; linker 12-18-25 via TBMB) | didn't show obvious antitumor activity | 155 mm^3 | 227 mm^3 | 304 mm^3 | 446 mm^3 | 558 mm^3 | 541 mm^3 | 611 mm^3 | 41.6% | 65.3% | 611 ± 242 mm^3 | 153 mm^3 | 234 mm^3 | 335 mm^3 | 458 mm^3 | 592 mm^3 | 731 mm^3 | 1042 mm^3 | 70.9% | 32.5% | Tumor Volume (mean ± SEM) (HT1080 xenograft; 3 mpk, biw, HT1080 xenograft): 1042 ± 232 mm^3; Tumor volume (HT1080 xenograft; 10 mpk, day 0): 155 mm^3; Tumor volume (HT1080 xenograft; 10 mpk, day 2): 266 mm^3; Tumor volume (HT1080 xenograft; 10 mpk, day 4): 424 mm^3; Tumor volume (HT1080 xenograft; 10 mpk, day 7): 579 mm^3; Tumor volume (HT1080 xenograft; 10 mpk, day 9): 769 mm^3; Tumor volume (HT1080 xenograft; 10 mpk, day 11): 942 mm^3; Tumor volume (HT1080 xenograft; 10 mpk, day 14): 1099 mm^3; T/C (HT1080 xenograft; [3]): 74.8%; TGI (HT1080 xenograft; [3]): 28.3%; Tumor Volume (mean ± SEM) (HT1080 xenograft; 10 mpk, biw, HT1080 xenograft): 1099 ± 163 mm^3
3 | CC[C@H](C)[C@@H]([C@@H](CC(=O)N1CCC[C@H]1[C@H](OC)[C@@H](C)C(=O)N[C@H](C)[C@@H](O)c1ccccc1)OC)N(C)C(=O)[C@@H](NC(=O)[C@@H](NC)C(C)C)C(C)C [MMAE, monomethyl auristatin E] (H-[NMeV]V[Dil][Dolaproine]-X1) | – | – | – | – | – | – | – | – | – | – | – | – | – | – | – | – | – | – | – | – | pIC50 (11 tumor cell lines): > 6.52
